This note sets out measurements from US11731970B1, “Pyrrolo[2,3-b]quinoline compounds as antibacterial agents” (KING FAISAL UNIVERSITY, priority 2023, dated 2023).

Converted amounts (≈) assume the structure as drawn.

Experiment [1] relates to Staphylococcus aureus ATCC 29213. Description: Antibacterial MIC, CLSI M07-A10 dilution. Particulars: ATCC29213. It is filed as cell-based.
The subject of experiment [2] is Staphylococcus aureus ATCC BAA-1556 (MERSA resistant). Nature of the experiment: Antibacterial MIC, CLSI M07-A10 dilution. It is filed as cell-based. Particulars: ATCCBAA1556.

The MIC is the lowest concentration that inhibits growth of the organism. On to `CN[C@H](CC(C)C)C(=O)N[C@H]1C(=O)N[C@@H](CC(N)=O)C(=O)N[C@H]2C(=O)N[C@H]3C(=O)N[C@H](C(=O)N[C@H](C(=O)O)c4cc(O)cc(O)c4-c4cc3ccc4O)[C@H](O)c3ccc(c(Cl)c3)Oc3cc2cc(c3O[C@@H]2O[C@H](CO)[C@@H](O)[C@H](O)[C@H]2O[C@H]2C[C@](C)(N)[C@H](O)[C@H](C)O2)Oc2ccc(cc2Cl)[C@H]1O` [Vancomycin, reference compound], for which the minimal inhibitory concentration (MIC) in experiment [1] and in experiment [2] was 1 µg/mL (≈ 0.69 µM) in each case.
